The supplement of paper PMC6411743
± gives the standard deviation of the averaged measurements. This is a selection; strong and weak results do not stand in their true shares. Most entries show no effect beyond the scatter of the controls.

By UniProt entry, the sequences of proteins in these tests, tags left out. Where a name states a change or a piece, a line headed by the entry shows the natural chain unless it says otherwise.
UniProt P14174: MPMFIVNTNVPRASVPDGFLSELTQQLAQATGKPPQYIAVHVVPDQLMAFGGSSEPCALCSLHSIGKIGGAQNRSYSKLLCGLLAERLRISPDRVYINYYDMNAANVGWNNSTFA
UniProt P00558: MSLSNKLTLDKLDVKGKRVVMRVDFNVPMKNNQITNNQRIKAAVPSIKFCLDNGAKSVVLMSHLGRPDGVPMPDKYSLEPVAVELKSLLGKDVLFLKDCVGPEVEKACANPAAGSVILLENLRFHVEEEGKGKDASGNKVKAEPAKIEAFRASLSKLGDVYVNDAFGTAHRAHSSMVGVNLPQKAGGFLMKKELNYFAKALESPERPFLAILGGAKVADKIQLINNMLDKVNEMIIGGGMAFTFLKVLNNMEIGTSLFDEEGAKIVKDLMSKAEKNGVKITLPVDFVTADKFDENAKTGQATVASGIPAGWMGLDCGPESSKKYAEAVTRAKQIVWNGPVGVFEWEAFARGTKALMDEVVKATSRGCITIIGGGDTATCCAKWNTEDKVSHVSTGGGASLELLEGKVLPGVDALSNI
UniProt O95816: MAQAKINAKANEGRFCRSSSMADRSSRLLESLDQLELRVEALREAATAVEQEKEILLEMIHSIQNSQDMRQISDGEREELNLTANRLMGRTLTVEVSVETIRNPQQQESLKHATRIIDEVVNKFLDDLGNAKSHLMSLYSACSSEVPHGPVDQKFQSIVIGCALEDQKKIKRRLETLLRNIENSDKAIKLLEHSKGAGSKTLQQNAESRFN
UniProt P05455: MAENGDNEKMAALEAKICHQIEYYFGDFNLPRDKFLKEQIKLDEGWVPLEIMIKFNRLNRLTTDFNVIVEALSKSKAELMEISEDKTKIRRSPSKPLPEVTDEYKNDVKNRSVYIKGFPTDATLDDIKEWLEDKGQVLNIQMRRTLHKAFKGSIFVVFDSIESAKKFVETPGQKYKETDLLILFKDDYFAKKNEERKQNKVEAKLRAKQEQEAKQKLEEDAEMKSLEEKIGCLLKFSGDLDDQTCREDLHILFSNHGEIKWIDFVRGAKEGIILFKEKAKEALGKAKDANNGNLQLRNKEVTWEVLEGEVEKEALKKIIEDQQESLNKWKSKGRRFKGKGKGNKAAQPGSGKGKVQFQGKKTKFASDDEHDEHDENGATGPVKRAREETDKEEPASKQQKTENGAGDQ
UniProt P00492: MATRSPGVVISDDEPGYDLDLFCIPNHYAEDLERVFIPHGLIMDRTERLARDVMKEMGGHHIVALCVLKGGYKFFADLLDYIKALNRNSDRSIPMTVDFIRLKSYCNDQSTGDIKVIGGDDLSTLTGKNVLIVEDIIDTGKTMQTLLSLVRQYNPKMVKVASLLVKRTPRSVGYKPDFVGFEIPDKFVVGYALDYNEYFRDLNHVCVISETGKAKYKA
UniProt P07437, whole entry: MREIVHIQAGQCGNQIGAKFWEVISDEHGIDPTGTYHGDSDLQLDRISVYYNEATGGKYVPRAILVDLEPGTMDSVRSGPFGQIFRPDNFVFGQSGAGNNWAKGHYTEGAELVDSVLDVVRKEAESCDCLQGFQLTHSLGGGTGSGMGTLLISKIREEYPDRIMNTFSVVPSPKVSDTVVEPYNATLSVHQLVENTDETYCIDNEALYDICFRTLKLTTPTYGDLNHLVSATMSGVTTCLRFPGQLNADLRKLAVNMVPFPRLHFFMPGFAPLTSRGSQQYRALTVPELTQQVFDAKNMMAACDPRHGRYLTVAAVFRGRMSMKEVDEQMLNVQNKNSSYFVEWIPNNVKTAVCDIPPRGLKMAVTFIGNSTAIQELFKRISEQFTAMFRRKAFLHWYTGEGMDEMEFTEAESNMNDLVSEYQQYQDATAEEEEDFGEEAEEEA
UniProt P13929, whole entry: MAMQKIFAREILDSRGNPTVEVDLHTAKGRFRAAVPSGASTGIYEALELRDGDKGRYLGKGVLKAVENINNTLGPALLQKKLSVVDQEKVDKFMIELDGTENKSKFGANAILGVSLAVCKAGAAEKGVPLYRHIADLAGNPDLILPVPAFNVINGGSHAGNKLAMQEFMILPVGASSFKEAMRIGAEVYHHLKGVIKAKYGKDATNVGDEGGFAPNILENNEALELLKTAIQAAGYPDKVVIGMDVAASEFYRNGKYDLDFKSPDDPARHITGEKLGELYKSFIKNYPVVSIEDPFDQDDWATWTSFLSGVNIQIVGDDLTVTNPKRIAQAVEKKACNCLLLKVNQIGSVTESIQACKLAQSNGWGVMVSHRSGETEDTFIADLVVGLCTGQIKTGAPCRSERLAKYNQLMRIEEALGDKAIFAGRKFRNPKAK
UniProt P10301: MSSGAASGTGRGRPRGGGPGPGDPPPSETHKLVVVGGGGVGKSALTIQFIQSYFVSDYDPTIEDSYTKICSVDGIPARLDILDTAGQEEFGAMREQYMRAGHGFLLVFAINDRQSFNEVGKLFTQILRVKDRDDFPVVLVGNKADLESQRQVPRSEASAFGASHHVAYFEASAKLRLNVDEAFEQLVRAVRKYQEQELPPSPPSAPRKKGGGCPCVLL
UniProt P14625, whole entry: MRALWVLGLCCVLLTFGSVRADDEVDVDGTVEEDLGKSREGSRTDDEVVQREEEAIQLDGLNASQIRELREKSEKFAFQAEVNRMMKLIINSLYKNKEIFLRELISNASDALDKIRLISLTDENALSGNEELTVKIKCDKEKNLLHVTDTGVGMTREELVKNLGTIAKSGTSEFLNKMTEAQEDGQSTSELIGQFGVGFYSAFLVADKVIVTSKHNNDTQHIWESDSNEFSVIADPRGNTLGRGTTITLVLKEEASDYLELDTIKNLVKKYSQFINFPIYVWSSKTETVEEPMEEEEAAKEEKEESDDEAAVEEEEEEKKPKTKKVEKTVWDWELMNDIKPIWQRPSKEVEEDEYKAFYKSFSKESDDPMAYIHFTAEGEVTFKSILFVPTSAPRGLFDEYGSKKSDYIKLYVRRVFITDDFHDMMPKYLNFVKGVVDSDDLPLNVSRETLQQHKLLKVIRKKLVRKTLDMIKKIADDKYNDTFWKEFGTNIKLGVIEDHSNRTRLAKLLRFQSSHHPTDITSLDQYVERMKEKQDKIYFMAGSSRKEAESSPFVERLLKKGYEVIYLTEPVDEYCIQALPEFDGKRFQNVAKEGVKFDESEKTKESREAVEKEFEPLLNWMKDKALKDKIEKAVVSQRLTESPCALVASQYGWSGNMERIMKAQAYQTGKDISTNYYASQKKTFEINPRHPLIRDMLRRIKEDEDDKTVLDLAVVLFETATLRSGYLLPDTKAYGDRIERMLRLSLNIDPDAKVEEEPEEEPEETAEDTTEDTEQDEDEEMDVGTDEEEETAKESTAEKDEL
UniProt P11171, whole entry: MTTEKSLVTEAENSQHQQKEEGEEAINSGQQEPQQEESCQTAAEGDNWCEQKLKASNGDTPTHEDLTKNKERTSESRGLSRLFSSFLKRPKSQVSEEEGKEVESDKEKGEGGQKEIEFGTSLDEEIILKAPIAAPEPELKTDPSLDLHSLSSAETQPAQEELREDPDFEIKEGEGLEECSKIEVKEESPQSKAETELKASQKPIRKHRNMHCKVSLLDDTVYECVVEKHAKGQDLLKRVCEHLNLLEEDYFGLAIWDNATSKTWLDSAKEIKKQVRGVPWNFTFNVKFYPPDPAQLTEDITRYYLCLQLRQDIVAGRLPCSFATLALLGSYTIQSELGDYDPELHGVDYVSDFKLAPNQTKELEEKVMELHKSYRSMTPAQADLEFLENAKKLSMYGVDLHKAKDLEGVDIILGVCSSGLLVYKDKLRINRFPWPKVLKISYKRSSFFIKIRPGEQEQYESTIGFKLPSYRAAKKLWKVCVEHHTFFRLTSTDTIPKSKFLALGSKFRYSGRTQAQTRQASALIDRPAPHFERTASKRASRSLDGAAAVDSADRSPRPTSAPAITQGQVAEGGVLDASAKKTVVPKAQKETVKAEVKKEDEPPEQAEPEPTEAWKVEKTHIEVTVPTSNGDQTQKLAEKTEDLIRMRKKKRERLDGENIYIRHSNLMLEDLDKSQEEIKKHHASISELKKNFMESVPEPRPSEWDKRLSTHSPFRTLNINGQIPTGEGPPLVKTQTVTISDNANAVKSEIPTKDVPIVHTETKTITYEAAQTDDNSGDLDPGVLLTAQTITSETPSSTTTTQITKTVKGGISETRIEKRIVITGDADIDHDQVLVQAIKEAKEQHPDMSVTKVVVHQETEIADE
UniProt P12004, whole entry: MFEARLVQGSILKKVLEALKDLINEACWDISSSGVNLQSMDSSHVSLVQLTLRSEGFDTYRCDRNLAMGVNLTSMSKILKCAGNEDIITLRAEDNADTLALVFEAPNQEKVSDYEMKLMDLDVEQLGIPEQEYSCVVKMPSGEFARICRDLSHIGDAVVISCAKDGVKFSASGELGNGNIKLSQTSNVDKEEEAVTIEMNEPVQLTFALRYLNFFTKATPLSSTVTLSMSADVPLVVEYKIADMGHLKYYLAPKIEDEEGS
UniProt P10109: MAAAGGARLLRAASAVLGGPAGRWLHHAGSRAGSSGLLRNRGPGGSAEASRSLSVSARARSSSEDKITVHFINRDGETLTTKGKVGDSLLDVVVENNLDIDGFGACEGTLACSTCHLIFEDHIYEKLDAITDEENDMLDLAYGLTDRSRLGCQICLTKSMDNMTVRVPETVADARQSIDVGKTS
UniProt P08621, whole entry: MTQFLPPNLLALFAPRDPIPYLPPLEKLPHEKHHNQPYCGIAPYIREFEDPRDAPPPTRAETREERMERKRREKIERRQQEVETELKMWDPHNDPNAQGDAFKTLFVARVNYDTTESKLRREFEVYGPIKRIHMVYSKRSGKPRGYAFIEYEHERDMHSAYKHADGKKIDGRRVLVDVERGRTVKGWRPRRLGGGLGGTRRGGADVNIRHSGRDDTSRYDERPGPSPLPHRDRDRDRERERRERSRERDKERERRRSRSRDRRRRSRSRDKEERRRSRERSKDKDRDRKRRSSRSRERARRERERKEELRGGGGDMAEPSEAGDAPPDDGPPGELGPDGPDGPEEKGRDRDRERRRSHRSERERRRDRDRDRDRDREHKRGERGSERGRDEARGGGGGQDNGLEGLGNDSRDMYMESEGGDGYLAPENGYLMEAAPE
UniProt P08134, whole entry: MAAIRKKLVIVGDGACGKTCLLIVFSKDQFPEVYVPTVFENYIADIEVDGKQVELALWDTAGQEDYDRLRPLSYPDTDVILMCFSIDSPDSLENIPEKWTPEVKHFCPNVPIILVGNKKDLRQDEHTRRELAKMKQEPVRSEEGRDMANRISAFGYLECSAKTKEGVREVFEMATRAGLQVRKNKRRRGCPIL
UniProt P01034: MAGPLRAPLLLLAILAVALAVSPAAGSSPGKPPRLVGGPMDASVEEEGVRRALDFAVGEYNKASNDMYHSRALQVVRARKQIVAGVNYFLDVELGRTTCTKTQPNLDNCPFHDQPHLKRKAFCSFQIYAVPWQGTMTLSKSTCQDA
UniProt P05198, whole entry: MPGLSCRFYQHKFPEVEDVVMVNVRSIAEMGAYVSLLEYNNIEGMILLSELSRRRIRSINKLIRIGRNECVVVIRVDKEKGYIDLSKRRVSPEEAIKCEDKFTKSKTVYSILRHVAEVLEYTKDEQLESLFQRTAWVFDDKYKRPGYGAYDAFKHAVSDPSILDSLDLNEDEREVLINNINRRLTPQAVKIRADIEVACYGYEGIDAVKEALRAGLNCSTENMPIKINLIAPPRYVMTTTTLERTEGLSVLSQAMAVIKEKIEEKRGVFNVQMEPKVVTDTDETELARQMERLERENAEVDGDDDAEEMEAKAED
UniProt P08238, whole entry: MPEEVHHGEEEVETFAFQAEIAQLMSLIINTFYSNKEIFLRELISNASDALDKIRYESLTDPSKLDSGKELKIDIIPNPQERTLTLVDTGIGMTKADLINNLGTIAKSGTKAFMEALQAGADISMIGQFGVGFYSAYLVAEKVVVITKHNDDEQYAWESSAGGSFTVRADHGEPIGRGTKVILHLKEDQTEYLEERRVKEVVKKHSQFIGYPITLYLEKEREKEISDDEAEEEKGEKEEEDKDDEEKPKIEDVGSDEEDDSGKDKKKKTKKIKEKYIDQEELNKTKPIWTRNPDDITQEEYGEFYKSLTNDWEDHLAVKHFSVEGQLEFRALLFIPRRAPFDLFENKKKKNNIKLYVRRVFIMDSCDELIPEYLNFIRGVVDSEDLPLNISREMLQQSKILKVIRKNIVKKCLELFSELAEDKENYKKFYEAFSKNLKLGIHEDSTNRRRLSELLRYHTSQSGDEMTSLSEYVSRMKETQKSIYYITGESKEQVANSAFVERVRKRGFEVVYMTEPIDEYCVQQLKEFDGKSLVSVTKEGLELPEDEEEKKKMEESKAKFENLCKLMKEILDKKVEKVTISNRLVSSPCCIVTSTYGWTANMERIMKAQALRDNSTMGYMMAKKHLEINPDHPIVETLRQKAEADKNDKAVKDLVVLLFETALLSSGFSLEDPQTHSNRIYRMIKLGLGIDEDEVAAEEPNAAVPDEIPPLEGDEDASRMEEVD
UniProt P07737, whole entry: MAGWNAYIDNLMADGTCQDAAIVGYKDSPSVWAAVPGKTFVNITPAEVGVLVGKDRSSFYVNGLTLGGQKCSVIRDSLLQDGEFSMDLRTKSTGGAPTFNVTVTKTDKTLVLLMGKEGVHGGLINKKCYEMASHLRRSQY

Compound: Nc1ncnc2c1ncn2[C@@H]1O[C@H](COP(=O)(O)OP(=O)(O)OP(=O)(O)O)[C@@H](O)[C@H]1O [adenosine triphosphate]
Assay: NP40-soluble protein abundance relative to vehicle (solubility fold change) (ratio); higher = more soluble protein in presence of ATP
Method in brief: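 Data come from three independent experiments in which Dounce-homogenised Jurkat crude lysate was treated at eight concentrations from 0.1 to 10 mM. Treatment ran 10 min at room temperature and then 3 min at 37 °C, after which 0.8% NP40 and benzonase were added for 60 min at 4 °C before ultracentrifugation. The supernatant underwent TMT labelling and LC-MS/MS, and vsn-normalised intensities were expressed as fold change against the detergent-processed vehicle in each replicate.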

Target	NP40-soluble protein abundance (concentration: 0.1mM)	NP40-soluble protein abundance (concentration: 0.5mM)	NP40-soluble protein abundance (concentration: 1mM)	NP40-soluble protein abundance (concentration: 2mM)	NP40-soluble protein abundance (concentration: 4mM)	NP40-soluble protein abundance (concentration: 6mM)	NP40-soluble protein abundance (concentration: 8mM)	NP40-soluble protein abundance (concentration: 10mM)
ALDOC (UniProt P09972)	1.01 ± 0.048	1.04 ± 0.07	–	–	–	–	–	–
TPR (UniProt P12270)	0.992 ± 0.023	1 ± 0.063	–	–	–	–	–	–
MIF (UniProt P14174)	0.991 ± 0.053	0.918 ± 0.074	–	–	–	–	–	–
PARP1 (UniProt P09874)	1.04 ± 0.072	1.1 ± 0.057	–	–	–	–	–	–
PGK1 (UniProt P00558)	1 ± 0.03	0.994 ± 0.031	–	–	–	–	–	–
UniProt P14859-5|P14859-6	0.899 ± 0.044	0.773 ± 0.051	–	–	–	–	–	–
BAG2 (UniProt O95816)	1 ± 0.11	0.939 ± 0.1	–	–	–	–	–	–
UniProt P00390 and related entries	1.05 ± 0.062	1.06 ± 0.064	–	–	–	–	–	–
SSB (UniProt P05455)	0.9 ± 0.088	0.99 ± 0.062	–	–	–	–	–	–
HPRT1 (UniProt P00492)	1.01 ± 0.067	0.991 ± 0.041	–	–	–	–	–	–
RNH1 (UniProt P13489)	1.05 ± 0.085	1.01 ± 0.079	–	–	–	–	–	–
UniProt P07437	0.964 ± 0.049	1.03 ± 0.045	–	–	–	–	–	–
UniProt P13929 and related entries	1.01 ± 0.07	1.05 ± 0.033	–	–	–	–	–	–
PDIA4 (UniProt P13667)	1.01 ± 0.041	1.03 ± 0.066	–	–	–	–	–	–
RRAS (UniProt P10301)	1.73 ± 0.62	1.01 ± 0.035	–	–	–	–	–	–
UniProt P06748 and related entries	0.957 ± 0.022	0.9973 ± 0.0059	–	–	–	–	–	–
HSP90B1 (UniProt P14625)	0.984 ± 0.057	1.03 ± 0.051	–	–	–	–	–	–
UniProt P11171-2|P11171 and related entries	1.02 ± 0.037	1.02 ± 0.055	–	–	–	–	–	–
PCNA (UniProt P12004)	1.02 ± 0.026	1.02 ± 0.058	–	–	–	–	–	–
UniProt P13051 and related entries	1.04 ± 0.13	1.04 ± 0.093	–	–	–	–	–	–

Target	NP40-soluble protein abundance (concentration: 0.1mM)	NP40-soluble protein abundance (concentration: 0.5mM)	NP40-soluble protein abundance (concentration: 1mM)	NP40-soluble protein abundance (concentration: 2mM)	NP40-soluble protein abundance (concentration: 4mM)	NP40-soluble protein abundance (concentration: 6mM)	NP40-soluble protein abundance (concentration: 8mM)	NP40-soluble protein abundance (concentration: 10mM)
FDX1 (UniProt P10109)	0.936 ± 0.05	0.927 ± 0.022	–	–	–	–	–	–
TOMM40 (UniProt O96008)	1.03 ± 0.074	1.02 ± 0.031	–	–	–	–	–	–
ADH5 (UniProt P11766)	0.96 ± 0.049	1.01 ± 0.037	–	–	–	–	–	–
UniProt P08243 and related entries	1.13 ± 0.12	1.11 ± 0.15	1.1 ± 0.13	1.1 ± 0.12	1.1 ± 0.11	1.03 ± 0.14	1.15 ± 0.12	1.09 ± 0.097
UniProt P08621 and related entries	1.02 ± 0.032	1.29 ± 0.099	1.33 ± 0.049	1.42 ± 0.083	1.59 ± 0.078	1.74 ± 0.096	1.88 ± 0.077	1.97 ± 0.14
UniProt P11388 and related entries	1.11 ± 0.055	1.21 ± 0.043	1.31 ± 0.066	1.41 ± 0.062	1.64 ± 0.06	1.76 ± 0.074	1.99 ± 0.11	2.03 ± 0.14
UniProt P11177 and related entries	1.01 ± 0.069	1.11 ± 0.09	1.14 ± 0.069	1.04 ± 0.041	1 ± 0.05	1.02 ± 0.18	1.05 ± 0.14	1.02 ± 0.12
UniProt P12268 and related entries	0.86 ± 0.18	1.11 ± 0.14	1.14 ± 0.2	0.858 ± 0.18	0.957 ± 0.03	0.745 ± 0.14	0.636 ± 0.064	0.587 ± 0.058
UniProt P06576 and related entries	0.87 ± 0.23	1.1 ± 0.16	0.822 ± 0.18	1.04 ± 0.22	0.825 ± 0.21	1.07 ± 0.2	1.05 ± 0.16	0.814 ± 0.21
UniProt P08134 and related entries	1.05 ± 0.077	1.05 ± 0.061	0.974 ± 0.053	0.998 ± 0.031	0.975 ± 0.024	1 ± 0.05	0.957 ± 0.067	0.971 ± 0.027
CST3 (UniProt P01034)	1.02 ± 0.12	0.918 ± 0.09	0.964 ± 0.083	0.971 ± 0.063	1 ± 0.11	1.03 ± 0.11	1.05 ± 0.15	1.05 ± 0.14
EIF2S1 (UniProt P05198)	1.05 ± 0.062	1.05 ± 0.064	1.04 ± 0.043	1.05 ± 0.034	1.02 ± 0.027	1.04 ± 0.07	1.06 ± 0.053	1.05 ± 0.051
UniProt P12931 and related entries	1.05 ± 0.095	1.01 ± 0.072	–	–	–	–	–	–
H1F0 (UniProt P07305)	0.981 ± 0.039	0.958 ± 0.03	–	–	–	–	–	–
HSP90AB1 (UniProt P08238)	1.04 ± 0.065	1.01 ± 0.027	1.01 ± 0.063	0.99 ± 0.052	0.983 ± 0.05	0.928 ± 0.069	0.953 ± 0.022	0.964 ± 0.064
PFN1 (UniProt P07737)	0.985 ± 0.041	0.951 ± 0.056	0.941 ± 0.059	0.934 ± 0.049	0.918 ± 0.027	0.92 ± 0.059	0.891 ± 0.015	0.911 ± 0.034
AKR1A1 (UniProt P14550)	1.02 ± 0.053	1.01 ± 0.052	0.989 ± 0.046	0.979 ± 0.047	0.956 ± 0.048	0.959 ± 0.086	0.986 ± 0.059	0.944 ± 0.05
XRCC5 (UniProt P13010)	1.04 ± 0.074	1.04 ± 0.047	1.04 ± 0.055	1.01 ± 0.051	0.996 ± 0.039	0.961 ± 0.076	1 ± 0.024	0.993 ± 0.057
TOP1 (UniProt P11387)	1.03 ± 0.018	1.05 ± 0.05	1.05 ± 0.019	1.088 ± 0.0094	1.22 ± 0.028	1.42 ± 0.035	1.599 ± 0.0062	1.78 ± 0.074

Laid out differently: entries from further up.
TOMM40 (UniProt O96008)
  NP40-soluble protein abundance (concentration: 0.1mM): 1.03 ± 0.074
  NP40-soluble protein abundance (concentration: 0.5mM): 1.02 ± 0.031
ADH5 (UniProt P11766)
  NP40-soluble protein abundance (concentration: 0.1mM): 0.96 ± 0.049
  NP40-soluble protein abundance (concentration: 0.5mM): 1.01 ± 0.037
UniProt P08243 and related entries
  NP40-soluble protein abundance (concentration: 0.1mM): 1.13 ± 0.12
  NP40-soluble protein abundance (concentration: 0.5mM): 1.11 ± 0.15
  NP40-soluble protein abundance (concentration: 1mM): 1.1 ± 0.13
  NP40-soluble protein abundance (concentration: 2mM): 1.1 ± 0.12
  NP40-soluble protein abundance (concentration: 4mM): 1.1 ± 0.11
  NP40-soluble protein abundance (concentration: 6mM): 1.03 ± 0.14
  NP40-soluble protein abundance (concentration: 8mM): 1.15 ± 0.12
  NP40-soluble protein abundance (concentration: 10mM): 1.09 ± 0.097
